The test is described as follows: qHTS Assay to Find Inhibitors of Chronic Active B-Cell Receptor Signaling. Particulars: ABC-DLBCL IkBa-CBG/CBR reporter, luminescence ratio (green luciferase fused to IkBa over red control in TMD8 lymphoma cells), 4 h. In short, it runs like this:
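Doxycycline induced both beetle luciferases in TMD8 lymphoma cells; IKK-driven degradation limits the IkappaBalpha-fused green signal, while red luminescence normalises for cell number and nonspecific effects. Compounds tested up to 46 uM, 4 hrs.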
On the technique in general: In qHTS, concentration-response curves come from the screen itself.

Where [1] appears, read: measured here: CBR red luminescence, cell number.

This is one part of the list. Further columns of the screen follow, without active or inactive calls. The list favours compounds with an active or inconclusive main result. Potencies come from curve fits of mixed quality, noted in brackets.

As usually defined, the AC50 is the concentration giving half of the maximal activity seen. With `O=C(COC(=O)c1ccccc1OC(F)F)Nc1ccc2[nH]c(=O)[nH]c2c1`, the half-maximal activity concentration (AC50) under setting [1] is 13 µM [rising, partial curve, poor fit]. With `CN(C)C(=O)c1cnc(Sc2ncc(C(F)(F)F)cc2Cl)n1C`, the AC50 under setting [1] was 1.03 µM [falling, full curve, poor fit].

With `COc1cc(/C=C2\SC(=Nc3ccccc3)N(Cc3ccco3)C2=O)ccc1OC(C)C(=O)O` (stereo unspecified), the AC50 under setting [1] is 32.6 µM [falling, single point].

`C=CCNC(=S)NNC(=O)C(CCC(C)C)CC(C)(C)O` (stereo unspecified): under setting [1], the AC50 was 32.6 µM [rising, single point]. Same read-out and setting: as for `COc1ccc(OC)c(NC(=O)c2cc3oc4ccccc4c3cc2O)c1`, the figure is 1.26 µM [falling, full curve, poor fit]. In the case of `CCC(C(=O)NC1CCCCC1)N(Cc1cccs1)C(=O)CCC(=O)Nc1cc(C)on1` (stereo unspecified), the AC50 under setting [1] was 35.5 µM [falling, single point]. The same measure, in the same setting: as for `Cc1ccc2c(c1)-n1c(nc3ccc(C)cc3c1=O)C(Cc1ccccc1)NC2=O` (stereo unspecified), the figure is 25.9 µM [falling, partial curve, poor fit]. Regarding `CN1CCN(C(=S)NC(=O)c2ccc(-c3ccccc3)cc2)CC1`, the AC50 under setting [1] was 22.4 µM [rising, single point] and the AC50 (measured here: IkBa-CBG green luminescence) was 35.5 µM [falling, partial curve, poor fit]. Take `CCOC(=O)Cc1csc(Nc2ccc(Cl)cc2)n1`: the AC50 under setting [1] was 13 µM [rising, partial curve, poor fit]. As to `COc1cc([C@@H]2[C@H]3CNCC=C3C(C#N)=C(N)C2(C#N)C#N)ccc1OC(C)C`, under setting [1], the AC50 is 1.64 µM [falling, partial curve, poor fit]. As for `COc1cc2c(cc1NC(=O)CCCCCN1C(=O)CCC1=O)oc1ccccc12`, the concentration at half-maximal activity (AC50) under setting [1] was 25.9 µM [falling, partial curve]. For the compound `S=C(Nc1ccc(Br)cc1)N1CCn2cccc2C1c1cccnc1` (stereo unspecified), under setting [1], the AC50 was 3.98 µM [rising, single point]. As for `Cc1ccc(NC(=S)N/N=C/c2c(C)[nH]c3ccccc23)cc1`, the AC50 under setting [1] was 12.6 µM [falling, partial curve, poor fit].

In the case of `O=S(=O)(NCCc1ccncc1)c1cc(Br)ccc1F`, the AC50 under setting [1] is 4.61 µM [falling, single point]. Same read-out and setting: next, `COc1ccc2c(c1)C(=O)N1[C@H]3c4cc(Cl)ccc4OC[C@@H]3[C@H](c3ccccc3)[C@]1(C)C(=O)N2`: 2.91 µM [falling, partial curve]; `COc1ccccc1N1CCN(C(=O)CSc2ncccc2-c2nc3ccccc3[nH]2)CC1`: 2.91 µM [falling, full curve]; `COc1ccc(C(=O)O)c(OC)n1`: 20 µM [falling, partial curve, poor fit]. As for `CC(C)COc1cccc(C(=O)Nc2ccc(N3CCOCC3)cc2N2CCOCC2)c1`, the AC50 under setting [1] was 6.51 µM [rising, partial curve, poor fit]. On the same count and under the same terms, next, `O=C(Nc1ccc2ccccc2c1)c1cnccn1`: 18.4 µM [falling, partial curve]; `Cc1noc(/C=C/NCc2cccnc2)c1S(=O)(=O)N(C)CC(=O)N1CCc2ccccc21`: 3.66 µM [falling, full curve, poor fit].

Turning to `COc1ccc(C2NC3=C(CCC3)C3(C#N)C(OC)(OC)N=C(N)C23C#N)cc1` (stereo unspecified), under setting [1], the concentration at half-maximal activity (AC50) was 31.6 µM [falling, single point]. `COc1ccc(C2C(C(=O)c3cccs3)=C(O)C(=O)N2c2cccc(C)n2)cc1OC` (stereo unspecified): the AC50 under setting [1] is 11.2 µM [rising, partial curve, poor fit]. `CC(OC(=O)CCc1nc2ccccc2c(=O)[nH]1)C(=O)Nc1cccc(C(F)(F)F)c1` (stereo unspecified): the half-maximal activity concentration (AC50) under setting [1] is 5.8 µM [rising, full curve]. With `Cc1cc(NC(=O)COC(=O)C2CCC(=O)N2)c([N+](=O)[O-])cc1C` (stereo unspecified), under setting [1], the AC50 is 12.6 µM [rising, single point].

Consider `C/C(=N\NC(=O)c1ccc(O)cc1)c1ccc(N2CCOCC2)cc1`, for which, under setting [1], the AC50 is 2.24 µM [falling, full curve, poor fit].

As for `O=C(CSc1ccc(Cl)cc1)NC1CCCc2ccccc21` (stereo unspecified), the AC50 under setting [1] is 18.4 µM [rising, partial curve, poor fit]. For the compound `O=C(COc1ccc(Cl)cc1Cl)NN=C1c2ccccc2-c2ccccc21`, the half-maximal activity concentration (AC50) under setting [1] is 1.3 µM [rising, full curve]. Turning to `O=C(c1ccsc1)N1CCCC(N2CCN(c3cccc(C(F)(F)F)c3)CC2)C1` (stereo unspecified), under setting [1], the AC50 was 25.1 µM [falling, single point]. Regarding `CCCc1n[nH]c(=S)n1Cc1ccco1`, the AC50 under setting [1] was 1.58 µM [rising, partial curve, poor fit].

For `O=C(Nc1ncc(Cl)cn1)c1cccs1`, the AC50 under setting [1] is 11.6 µM [falling, partial curve, poor fit]. Regarding `COc1ccc(CC(=O)Nc2cccc(Cl)c2C)cc1S(=O)(=O)N1CCOCC1`, the AC50 under setting [1] is 0.517 µM [rising, full curve, poor fit].

On to `CC(C)n1nc(C(=O)Nc2nnc(C3CC3)s2)c2ccccc2c1=O`, for which the AC50 under setting [1] was 12.6 µM [rising, single point]. As to `Cc1cc(F)ccc1S(=O)(=O)Nc1ncnc2sc3c(c12)CCC3`, under setting [1], the half-maximal activity concentration (AC50) is 2.82 µM [falling, full curve]. In the case of `O=[N+]([O-])c1cc(Cl)cc(/C=N/NC(=S)Nc2ccc(S(=O)(=O)N3CCOCC3)cc2)c1O`, the AC50 under setting [1] was 15.8 µM [falling, single point]. As for `Oc1ccc(/C(Cc2ccc3ccccc3n2)=N\Nc2ccccc2)c(O)c1`, under setting [1], the AC50 is 7.08 µM [falling, full curve]. In the case of `CC1(C(=O)NCCc2c[nH]c3ccccc23)C=CC2(CCCCC2)N1C(=O)c1ccccc1` (stereo unspecified), the AC50 under setting [1] was 0.501 µM [falling, full curve, poor fit]. On the same count and under the same terms, as for `COC(=O)C(C)Sc1n[nH]c(=S)s1` (stereo unspecified), the figure is 20.6 µM [rising, single point]. The same measure, in the same setting: as for `COc1ccc(CN2CCOCC2)c(C)c1C`, the figure is 29.1 µM [rising, single point]. As to `Cc1cc(C)c2nc(C)cc(N/N=C/c3ccc(O)cc3)c2c1`, the AC50 under setting [1] is 10 µM [falling, partial curve].

Take `CN(c1ccccc1)S(=O)(=O)c1ccc(C(=O)NCc2cccs2)cc1`: the concentration at half-maximal activity (AC50) under setting [1] is 6.31 µM [rising, partial curve].

Source of the values: PubChem BioAssay AID493014 (National Center for Advancing Translational Sciences (NCATS), 2011).
